Source: US7763281B2, “Antihypertensive peptide and use thereof” (Da-Yeh University, priority 2007, dated 2010)
Part of at least one peptide drawing is inferred or uncertain, most often the ends. Ends that are not written are not given here.

Tested on: spontaneously hypertensive rats (SHRs)
Test: Change of SBP and DBP in SHRs by tail-cuff method after single oral administration
Format: in vivo, rat
Protocol: Therefore, the antihypertensive activity of the aforementioned supernatant powder of the fermented dairy product were measured in SHRs and normotensive rats (Wistar-Kyoto rats, WKYs) to evaluate its potential applications to functional food for preventing hypertension. The male SHRs and male WKYs used in the present and following examples were purchased from National Laboratory Animal Center (Taipei, Taiwan) and fed with laboratory chow (Rodent laboratory chow 5001, Purina Co., USA). Blood pressures including SBP and DBP of 8- to 18-wk-old SHRs (body weight, 330-360 g) and 8- to 18-wk-old WKYs (body weight, 350-380 g) were measured by the tail-cuff method employing a tail-cuff detection system (Softron BP16; Softron, Tokyo, Japan). The antihypertensive activities of the test samples were evaluated by measuring the changes in SBP and DBP of SHRs and WKYs during 0-10 h after oral administration of respective samples.

Sequence: VLSLSQPKVLPVPQKAVPQ [Val-Leu-Ser-Leu-Ser-Gln-Pro-Lys-Val-Leu-Pro-Val-Pro-Gln-Lys-Ala-Val-Pro-Gln]
- SBP change compared with Val-Pro-Pro, Lys-Val-Leu-Pro-Val-Pro and Lys-Val-Leu-Pro-Val-Pro-Gln (FIG. 10) (1 mg/kg BW each, at 5 h after single oral administration, P=0.00001, 0.00003, 0.00007): extremely significantly higher antihypertensive activity
- maximal decrease of SBP (single oral dose 1 mg/kg BW, at 5 h): 44.0±2.1 mmHg
- maximal decrease of DBP (single oral dose 1 mg/kg BW, at 6 h): 23.0±2.9 mmHg
